Data from publication doi:10.1101/2024.09.12.612642.
No constants are given. Whether binding was seen depends on the method and setting. In cells and extracts the contact can be indirect. Some entries that bind do so weakly or less than the wild type. Sequences can lack the tags named with a protein.

T1: AL5 (Arabidopsis (endogenous in floral tissue)) (UniProt Q5XEM9)
T1 sequence: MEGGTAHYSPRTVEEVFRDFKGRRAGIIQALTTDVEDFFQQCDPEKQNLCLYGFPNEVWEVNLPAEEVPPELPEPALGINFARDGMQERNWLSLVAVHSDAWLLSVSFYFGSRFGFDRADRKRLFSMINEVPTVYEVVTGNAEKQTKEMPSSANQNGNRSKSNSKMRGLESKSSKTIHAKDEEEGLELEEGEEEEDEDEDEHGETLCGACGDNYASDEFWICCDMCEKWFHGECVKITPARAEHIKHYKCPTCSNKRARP

B1: ARP6-3xFLAG-BLRP (protein, UniProt Q8LGE3 1-421)
chain: MSNIVVLDNGGGLIKAGQGGERDPTTVIPNCLYKPLSSKKFIHPSPLTTLSDEIDLTSAAVRRPIDRGYLINSDLQREIWSHLFTSLLHIAPSSSSLLLTEAPLSIPSVQRTTDELVFEDFGFSSLYIAHPQSLVHLYEASRQPDSILSKTQCSLVVDCGFSFTHAVPVLHNFTLNHAIKRIDLGGKAFTNYLKELVSYRSINVMDETFLVDDAKEKLCFVSLDLLRDLRLARNGNTLIKSTYVLPDGVTHTKGYVKDPQAAKRFLSLSEKESVVVMDKVGERKKADMNKNEIDLTNERFLVPETLFQPADLGMNQAGLAECIVRAINSCHSYLQPVLYQSIILTGGSTLFPQLKERLEGELRPLVPDHFDVKITTQEDPILGVWRGGSLLASSPDFESMCVTKAEYEELGSARCRRRFFH
B2: ARP6-9xMYC-BLRP (protein, UniProt Q8LGE3 1-421)
chain: B1 chain

Molecular target: T1, AL5 (Arabidopsis (endogenous in floral tissue))
Experiment: co-IP

Binder | binding
B1 | binds
B2 | binds
